# Test results published in the supplement of paper PMC10849652.
# Amino acid sequences for entries named in this document (tags omitted). A change or cut given only in a name is not applied to a line headed by its entry.
# UniProt P19105: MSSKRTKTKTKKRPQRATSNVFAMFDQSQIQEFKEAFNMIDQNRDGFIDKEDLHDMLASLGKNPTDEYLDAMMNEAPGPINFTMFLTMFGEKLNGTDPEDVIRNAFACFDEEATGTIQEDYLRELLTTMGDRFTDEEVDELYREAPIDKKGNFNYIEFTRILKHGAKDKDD
# UniProt P49321, whole entry, looked up: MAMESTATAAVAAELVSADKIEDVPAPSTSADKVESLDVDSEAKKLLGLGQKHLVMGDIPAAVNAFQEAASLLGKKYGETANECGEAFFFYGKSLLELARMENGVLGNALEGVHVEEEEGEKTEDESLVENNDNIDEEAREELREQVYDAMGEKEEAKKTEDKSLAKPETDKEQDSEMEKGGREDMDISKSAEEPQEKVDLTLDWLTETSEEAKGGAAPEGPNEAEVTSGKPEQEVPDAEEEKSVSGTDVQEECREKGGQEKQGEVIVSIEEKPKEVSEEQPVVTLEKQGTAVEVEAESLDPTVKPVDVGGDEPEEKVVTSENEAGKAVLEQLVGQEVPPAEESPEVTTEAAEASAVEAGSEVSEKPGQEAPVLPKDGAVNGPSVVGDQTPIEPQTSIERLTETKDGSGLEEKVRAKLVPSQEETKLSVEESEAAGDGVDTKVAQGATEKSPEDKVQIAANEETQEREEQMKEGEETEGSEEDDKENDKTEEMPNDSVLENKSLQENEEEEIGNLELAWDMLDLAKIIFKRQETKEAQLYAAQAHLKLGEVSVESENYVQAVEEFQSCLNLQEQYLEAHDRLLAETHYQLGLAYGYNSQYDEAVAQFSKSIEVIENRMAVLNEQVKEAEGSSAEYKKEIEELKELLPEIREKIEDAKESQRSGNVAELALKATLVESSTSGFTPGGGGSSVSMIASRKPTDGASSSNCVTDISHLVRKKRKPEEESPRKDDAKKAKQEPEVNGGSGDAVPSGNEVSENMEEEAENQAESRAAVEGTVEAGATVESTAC
# UniProt Q15742: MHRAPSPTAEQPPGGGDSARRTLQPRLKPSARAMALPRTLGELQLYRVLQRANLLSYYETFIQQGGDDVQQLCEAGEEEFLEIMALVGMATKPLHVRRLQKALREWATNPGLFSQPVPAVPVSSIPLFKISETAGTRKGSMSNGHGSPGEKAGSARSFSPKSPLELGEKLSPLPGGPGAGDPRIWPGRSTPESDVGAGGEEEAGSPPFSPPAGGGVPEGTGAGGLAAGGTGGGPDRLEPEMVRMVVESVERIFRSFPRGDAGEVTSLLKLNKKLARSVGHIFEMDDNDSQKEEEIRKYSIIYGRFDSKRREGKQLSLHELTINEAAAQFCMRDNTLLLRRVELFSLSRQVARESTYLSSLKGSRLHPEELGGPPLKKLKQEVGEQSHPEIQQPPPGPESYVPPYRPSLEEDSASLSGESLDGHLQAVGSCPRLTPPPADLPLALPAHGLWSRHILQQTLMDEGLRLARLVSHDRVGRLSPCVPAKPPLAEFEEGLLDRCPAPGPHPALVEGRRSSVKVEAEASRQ
# UniProt Q9HD67, whole entry, looked up: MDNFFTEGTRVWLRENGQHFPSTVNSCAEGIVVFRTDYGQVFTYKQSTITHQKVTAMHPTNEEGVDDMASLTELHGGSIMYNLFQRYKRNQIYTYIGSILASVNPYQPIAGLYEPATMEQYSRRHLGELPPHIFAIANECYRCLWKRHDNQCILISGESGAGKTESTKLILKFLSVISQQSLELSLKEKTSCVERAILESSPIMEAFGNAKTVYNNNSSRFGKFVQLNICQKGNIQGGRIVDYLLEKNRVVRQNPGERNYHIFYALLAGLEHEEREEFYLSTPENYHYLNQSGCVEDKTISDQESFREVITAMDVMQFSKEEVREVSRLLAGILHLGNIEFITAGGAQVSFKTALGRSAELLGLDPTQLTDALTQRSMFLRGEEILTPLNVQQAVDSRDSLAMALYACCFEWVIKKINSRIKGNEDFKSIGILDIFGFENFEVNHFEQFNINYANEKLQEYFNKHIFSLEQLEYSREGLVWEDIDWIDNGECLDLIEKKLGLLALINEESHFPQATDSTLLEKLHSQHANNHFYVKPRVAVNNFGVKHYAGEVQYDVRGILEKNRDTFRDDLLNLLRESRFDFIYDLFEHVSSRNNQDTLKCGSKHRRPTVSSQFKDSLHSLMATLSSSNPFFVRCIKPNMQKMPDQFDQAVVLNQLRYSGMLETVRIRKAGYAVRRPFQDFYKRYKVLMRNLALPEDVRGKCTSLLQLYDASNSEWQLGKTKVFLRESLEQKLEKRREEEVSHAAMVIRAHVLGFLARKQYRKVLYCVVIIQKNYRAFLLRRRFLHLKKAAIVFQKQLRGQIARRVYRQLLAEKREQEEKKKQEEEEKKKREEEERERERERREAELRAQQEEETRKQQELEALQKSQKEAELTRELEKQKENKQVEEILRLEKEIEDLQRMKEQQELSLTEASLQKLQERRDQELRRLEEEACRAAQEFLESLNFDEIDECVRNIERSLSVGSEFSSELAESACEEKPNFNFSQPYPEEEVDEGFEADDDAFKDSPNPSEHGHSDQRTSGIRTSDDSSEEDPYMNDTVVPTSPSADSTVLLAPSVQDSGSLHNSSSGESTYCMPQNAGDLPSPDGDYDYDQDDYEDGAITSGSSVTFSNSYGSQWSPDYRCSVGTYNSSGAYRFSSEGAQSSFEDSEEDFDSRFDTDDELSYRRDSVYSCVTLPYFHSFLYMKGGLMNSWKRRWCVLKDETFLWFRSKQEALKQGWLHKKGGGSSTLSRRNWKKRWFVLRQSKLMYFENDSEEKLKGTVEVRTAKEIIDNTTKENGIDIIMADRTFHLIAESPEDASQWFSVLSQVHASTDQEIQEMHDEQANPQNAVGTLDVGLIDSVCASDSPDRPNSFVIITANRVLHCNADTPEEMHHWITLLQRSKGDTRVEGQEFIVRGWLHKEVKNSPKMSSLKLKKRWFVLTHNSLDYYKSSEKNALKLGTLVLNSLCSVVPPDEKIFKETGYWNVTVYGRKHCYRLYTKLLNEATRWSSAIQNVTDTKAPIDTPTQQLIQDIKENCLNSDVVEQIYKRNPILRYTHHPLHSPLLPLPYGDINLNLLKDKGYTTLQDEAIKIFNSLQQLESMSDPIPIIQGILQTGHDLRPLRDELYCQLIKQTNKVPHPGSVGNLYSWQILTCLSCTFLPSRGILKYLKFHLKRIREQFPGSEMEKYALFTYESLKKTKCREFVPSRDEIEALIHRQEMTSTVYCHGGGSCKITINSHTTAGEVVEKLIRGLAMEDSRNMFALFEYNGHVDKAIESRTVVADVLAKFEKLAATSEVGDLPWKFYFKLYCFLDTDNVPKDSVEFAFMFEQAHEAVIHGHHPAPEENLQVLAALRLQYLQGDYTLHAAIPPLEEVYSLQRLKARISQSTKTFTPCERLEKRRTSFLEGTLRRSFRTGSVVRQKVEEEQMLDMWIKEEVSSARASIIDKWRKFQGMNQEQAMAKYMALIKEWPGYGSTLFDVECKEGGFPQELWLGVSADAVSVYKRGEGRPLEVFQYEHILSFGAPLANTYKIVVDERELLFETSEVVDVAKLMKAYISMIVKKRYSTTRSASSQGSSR
# UniProt Q6NZ67, whole entry, looked up: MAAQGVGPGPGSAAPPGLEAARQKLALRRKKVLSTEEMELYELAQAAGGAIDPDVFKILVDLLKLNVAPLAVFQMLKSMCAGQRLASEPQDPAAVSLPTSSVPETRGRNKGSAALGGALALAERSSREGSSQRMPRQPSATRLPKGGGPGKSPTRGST
# UniProt Q6ZVX7: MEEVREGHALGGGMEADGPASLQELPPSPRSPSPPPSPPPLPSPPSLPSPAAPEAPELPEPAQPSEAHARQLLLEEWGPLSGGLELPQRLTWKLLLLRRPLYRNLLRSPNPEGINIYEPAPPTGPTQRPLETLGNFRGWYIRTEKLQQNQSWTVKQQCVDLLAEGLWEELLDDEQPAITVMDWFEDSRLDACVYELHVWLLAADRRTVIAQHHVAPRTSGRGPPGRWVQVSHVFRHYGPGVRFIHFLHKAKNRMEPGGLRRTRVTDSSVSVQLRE
# UniProt Q8IVL1: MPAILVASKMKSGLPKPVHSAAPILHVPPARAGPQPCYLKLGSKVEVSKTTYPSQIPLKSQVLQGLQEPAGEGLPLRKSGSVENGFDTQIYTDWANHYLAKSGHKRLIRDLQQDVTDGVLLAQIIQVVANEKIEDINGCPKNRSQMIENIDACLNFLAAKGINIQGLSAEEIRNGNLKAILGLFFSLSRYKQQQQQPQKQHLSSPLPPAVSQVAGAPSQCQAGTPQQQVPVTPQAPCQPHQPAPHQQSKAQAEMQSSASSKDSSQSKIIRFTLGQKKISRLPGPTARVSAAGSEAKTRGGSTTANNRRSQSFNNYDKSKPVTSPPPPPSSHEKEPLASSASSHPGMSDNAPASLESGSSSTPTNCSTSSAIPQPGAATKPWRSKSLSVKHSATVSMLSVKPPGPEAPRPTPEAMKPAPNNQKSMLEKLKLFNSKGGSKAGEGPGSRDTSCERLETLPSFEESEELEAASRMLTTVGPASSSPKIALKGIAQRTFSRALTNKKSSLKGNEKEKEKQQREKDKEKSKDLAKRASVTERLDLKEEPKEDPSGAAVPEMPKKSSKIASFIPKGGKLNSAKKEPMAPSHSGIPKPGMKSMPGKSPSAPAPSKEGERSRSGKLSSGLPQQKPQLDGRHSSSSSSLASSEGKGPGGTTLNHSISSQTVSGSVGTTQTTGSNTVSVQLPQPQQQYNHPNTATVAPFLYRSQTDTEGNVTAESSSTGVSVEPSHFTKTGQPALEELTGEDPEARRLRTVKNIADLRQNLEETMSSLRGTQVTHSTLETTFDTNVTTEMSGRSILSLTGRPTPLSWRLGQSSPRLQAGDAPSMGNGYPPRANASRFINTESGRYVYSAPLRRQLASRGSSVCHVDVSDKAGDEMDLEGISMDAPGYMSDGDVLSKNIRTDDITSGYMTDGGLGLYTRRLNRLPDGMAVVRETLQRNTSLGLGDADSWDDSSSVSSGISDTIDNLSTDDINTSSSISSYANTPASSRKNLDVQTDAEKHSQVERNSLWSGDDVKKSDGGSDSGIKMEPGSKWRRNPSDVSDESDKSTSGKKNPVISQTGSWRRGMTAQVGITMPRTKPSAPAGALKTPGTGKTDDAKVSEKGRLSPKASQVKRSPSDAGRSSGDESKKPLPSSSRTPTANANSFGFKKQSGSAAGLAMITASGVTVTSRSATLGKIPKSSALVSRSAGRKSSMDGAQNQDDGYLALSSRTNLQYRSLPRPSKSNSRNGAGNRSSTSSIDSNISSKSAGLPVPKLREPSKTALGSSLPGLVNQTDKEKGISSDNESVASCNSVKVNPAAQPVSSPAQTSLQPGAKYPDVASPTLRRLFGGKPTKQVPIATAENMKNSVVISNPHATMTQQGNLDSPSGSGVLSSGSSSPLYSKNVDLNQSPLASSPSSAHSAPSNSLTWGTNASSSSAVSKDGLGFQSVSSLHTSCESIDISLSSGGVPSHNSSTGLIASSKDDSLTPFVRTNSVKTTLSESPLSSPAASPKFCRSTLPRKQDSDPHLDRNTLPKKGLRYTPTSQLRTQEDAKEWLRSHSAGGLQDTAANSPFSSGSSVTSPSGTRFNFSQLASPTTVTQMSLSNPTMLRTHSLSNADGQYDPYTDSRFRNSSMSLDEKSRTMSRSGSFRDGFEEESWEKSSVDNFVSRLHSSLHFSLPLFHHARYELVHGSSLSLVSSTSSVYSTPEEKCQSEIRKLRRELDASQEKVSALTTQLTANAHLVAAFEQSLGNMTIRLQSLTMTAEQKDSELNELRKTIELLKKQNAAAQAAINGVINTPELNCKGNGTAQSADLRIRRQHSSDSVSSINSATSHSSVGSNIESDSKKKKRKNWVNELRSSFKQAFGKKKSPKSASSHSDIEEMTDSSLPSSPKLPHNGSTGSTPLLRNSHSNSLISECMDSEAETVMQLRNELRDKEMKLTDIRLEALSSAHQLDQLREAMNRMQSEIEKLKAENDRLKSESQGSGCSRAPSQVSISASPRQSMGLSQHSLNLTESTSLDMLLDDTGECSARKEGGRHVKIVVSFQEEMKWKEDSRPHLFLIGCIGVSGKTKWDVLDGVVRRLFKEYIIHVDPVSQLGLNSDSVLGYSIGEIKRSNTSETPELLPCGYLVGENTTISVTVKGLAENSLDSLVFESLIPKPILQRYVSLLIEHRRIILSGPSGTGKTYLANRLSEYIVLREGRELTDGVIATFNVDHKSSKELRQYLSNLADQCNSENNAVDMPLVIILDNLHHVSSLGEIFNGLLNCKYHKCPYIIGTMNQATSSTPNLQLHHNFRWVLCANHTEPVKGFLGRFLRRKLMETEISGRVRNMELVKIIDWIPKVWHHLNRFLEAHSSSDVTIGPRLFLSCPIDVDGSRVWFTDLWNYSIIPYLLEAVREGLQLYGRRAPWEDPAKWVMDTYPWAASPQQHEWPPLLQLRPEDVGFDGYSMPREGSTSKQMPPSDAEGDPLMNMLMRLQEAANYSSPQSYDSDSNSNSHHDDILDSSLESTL
# Some of the results follow.
# What was measured:
# Assay in all cases: log2 fold change, soluble protein after heating vs DMSO (PISA); higher = thermal stabilisation; K562 lysate, 10 uM; active = over 0.2 and 3.5 SD of the protein, either way, in both replicates (recomputed)
# [1] = compound: c1ccc([C@@H]2C[C@H]2NC2CCNCC2)cc1
# How it was run: (§1)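 Following dounce homogenisation of K562 pellets in PBS pH 7.4 with 1 mM MgCl2, crude extract at 1 mg/mL protein was incubated for 30 min with 10 μM compound. Aliquots were then heated for 3 min over 48°C-58°C and pooled, NP-40 was added to 0.5% at 4°C, and soluble protein was recovered as the supernatant at 21,000xg for 90 min. Channel-sum-equalised TMTpro 16plex LC-MS/MS quantified this protein. Each value, from duplicates, is a log-two fold change in thermal stability relative to solvent controls.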
# [2] = compound: Cc1sc2c(c1C)C(c1ccc(Cl)cc1)=N[C@@H](CC(=O)OC(C)(C)C)c1nnc(C)n1-2
# How it was run: as §1
# [3] = compound: C1=CC=C(C=C1)[C@H](COC2=CC3=C(C=C2)NC(=O)N3)NC(=O)C4=CC=CN(C4=O)CC5=CC(=C(C=C5)F)F
# How it was run: as §1
# [4] = compound: CC1=C(SC2=C1C(=N[C@H](C3=NN=C(N32)C)CC(=O)N)C4=CC=C(C=C4)Cl)C
# How it was run: as §1
# [5] = compound: CC1=C2C(=CC=C1)N=C(N(C2=O)C3=CC=CC=C3C)CN4C=NC5=C(N=CN=C54)N
# How it was run: as §1
Target,log2 fold change [1],log2 fold change [2],log2 fold change [3],log2 fold change [4],log2 fold change [5]
MYL12A (UniProt P19105),inactive: 0.14,–,–,–,–
NCKAP5L (UniProt Q9HCH0),inactive: 0.073,inactive: -0.071,–,–,–
NASP isoform 2 (UniProt P49321),inactive: 0.585,–,inactive: 0.146,inactive: -0.332,–
MYBL2 (UniProt P10244),active: 0.326,inactive: 0.047,–,–,inactive: -0.01
MYNN (UniProt Q9NPC7),–,inactive: 0.16,–,–,inactive: -0.027
NAB2 (UniProt Q15742),inactive: 0.058,inactive: 0.117,inactive: -0.065,inactive: 0.008,inactive: 0.087
MYO10 (UniProt Q9HD67),inactive: 0.024,–,inactive: -0.122,inactive: 0.104,inactive: 0.165
MYH2 (UniProt Q9UKX2),–,inactive: -0.222,inactive: -1.29,inactive: 0.432,–
NAB1 (UniProt Q13506),inactive: -0.02,inactive: -0.018,inactive: 0.016,inactive: -0.069,–
NACA2 (UniProt Q9H009),–,inactive: -0.028,–,–,–
MYB isoform 4 (UniProt P10242),inactive: 0.014,inactive: -0.056,inactive: -0.162,inactive: 0.118,inactive: 0.014
NCAPG (UniProt Q9BPX3),inactive: 0.03,inactive: 0.013,inactive: -0.031,inactive: 0.013,inactive: -0.007
MZT2B (UniProt Q6NZ67),inactive: 0.09,–,inactive: 0.051,inactive: 0.024,inactive: -0.078
MYLK3 (UniProt Q32MK0),inactive: -0.039,–,inactive: 0.061,inactive: -0.064,–
NCOA1 isoform 2 (UniProt Q15788),inactive: 0.105,inactive: 0.015,–,–,inactive: -0.069
MUC5B (UniProt Q9HC84),inactive: -0.012,inactive: -0.242,–,–,–
NCCRP1 (UniProt Q6ZVX7),inactive: 0,inactive: 0.033,inactive: -0.3,inactive: 0.14,–
MVB12A (UniProt Q96EY5),inactive: 0.059,inactive: 0.032,inactive: 0.006,inactive: 0.032,inactive: 0.017
NCLN isoform 2 (UniProt Q969V3),–,–,–,–,inactive: -0.063
MUS81 (UniProt Q96NY9),inactive: 0,inactive: -0.032,inactive: 0.131,inactive: 0.191,–
MYC isoform 2 (UniProt P01106),inactive: -0.022,–,–,–,–
MXRA7 (UniProt P84157),inactive: -0.062,inactive: -0.106,–,–,inactive: -0.05
NAV2 (UniProt Q8IVL1),inactive: 0,–,inactive: -0.18,inactive: 0.145,–
NAMPT (UniProt C9JF35),inactive: -0.09,–,–,–,–
N4BP2L1 (UniProt Q5TBK1),inactive: -0.287,–,inactive: -0.153,inactive: 0.068,inactive: -0.021
NAP1L4 (UniProt C9JZI7),–,inactive: -0.061,–,–,–
MYOF (UniProt Q9NZM1),–,inactive: -0.096,–,–,–
NABP1 (UniProt Q96AH0),–,–,–,–,inactive: -0.08

# Retrieved one by one from above (two):
Target,log2 fold change [1],log2 fold change [2],log2 fold change [3],log2 fold change [4],log2 fold change [5]
NABP1 (UniProt Q96AH0),–,–,–,–,inactive: -0.08
NASP isoform 2 (UniProt P49321),inactive: 0.585,–,inactive: 0.146,inactive: -0.332,–
